Here are results for 1 molecule from the supplement of paper PMC8728848.

Holding throughout (experiment): glycan array binding signal (z-score within array); higher = stronger binding
What all share (settings): glycan notation: IUPAC condensed, linker removed

The target of test [1] is Neu5Ac(a2-3)Gal(b1-4)GlcNAc6S. In outline:
(§1)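 Negative Z-scores can be read as non-binding. The Z-score is calculated within each array and then averaged across arrays of one protein sequence at different concentrations or buffers and across linkers. Arrays, 3228 in all, were curated from the Consortium for Functional Glycomics database and kept only where the protein sequence was available.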

Test [2] deals with Neu5Ac(a2-3)Gal(b1-4)[Fuc(a1-3)]GlcNAc. In outline:
as §1

Test [3] concerns the target Neu5Ac(a2-3)Gal(b1-4)[Fuc(a1-3)]GlcNAc(b1-2)Man. In short, it runs like this: as §1
Test [4] has as its target Neu5Ac(a2-3)Gal(b1-4)[Fuc(a1-3)]GlcNAc(b1-3)Gal. In short, it runs like this: as §1
Test [5] addresses Neu5Ac(a2-3)Gal(b1-4)[Fuc(a1-3)]GlcNAc(b1-3)Gal(b1-4)GlcNAc. In outline: as §1
Test [6] concerns the target Neu5Ac(a2-3)Gal(b1-4)[Fuc(a1-3)]GlcNAc(b1-3)Gal(b1-4)[Fuc(a1-3)]GlcNAc(b1-3)Gal(b1-4)[Fuc(a1-3)]GlcNAc. In outline:
as §1

Test [7] has as its target Neu5Ac(a2-3)Gal(b1-4)[Fuc(a1-3)]GlcNAc(b1-3)GalNAc. In short, it runs like this: as §1
Test [8] concerns the target Neu5Ac(a2-3)Gal(b1-4)[Fuc(a1-3)]GlcNAc(b1-6)[Gal(b1-3)]GalNAc. In short, it runs like this:
as §1

Test [9] has as its target Neu5Ac(a2-3)Gal(b1-4)[Fuc(a1-3)]GlcNAc(b1-6)[Neu5Ac(a2-3)Gal(b1-3)]GalNAc. In short, it runs like this: as §1
Test [10] concerns the target Neu5Ac(a2-3)Gal(b1-4)[Fuc(a1-3)]GlcNAc6S. In short, it runs like this: as §1
Test [11] deals with Neu5Ac(a2-3)Gal6S(b1-4)GlcNAc. In outline: as §1
Test [12] deals with Neu5Ac(a2-3)Gal6S(b1-4)[Fuc(a1-3)]GlcNAc. In outline: as §1
Another test deals with Neu5Ac(a2-3)GalNAc. In short, it runs like this: as §1
In test [13] the target is Neu5Ac(a2-3)GalNAc(b1-4)GlcNAc. In outline: as §1
In test [14] the target is Neu5Ac(a2-3)[GalNAc(b1-4)]Gal(b1-4)Glc. In short, it runs like this:
as §1

Test [15] concerns the target Neu5Ac(a2-3)[GalNAc(b1-4)]Gal(b1-4)GlcNAc. In outline:
as §1

The target in test [16] is Neu5Ac(a2-3)[GalNAc(b1-4)]Gal(b1-4)GlcNAc(b1-3)GalNAc. In outline:
as §1

Test [17] concerns the target Neu5Ac(a2-3)[Neu5Ac(a2-6)]GalNAc. In short, it runs like this: as §1
The target of the next test is Neu5Ac(a2-6)Gal. In short, it runs like this:
as §1

Test [18] concerns the target Neu5Ac(a2-6)Gal(b1-3)GlcNAc(b1-3)[Gal(b1-4)GlcNAc(b1-6)]Gal(b1-4)Glc. In short, it runs like this:
as §1

The next test concerns the target Neu5Ac(a2-6)Gal(b1-4)Glc. In short, it runs like this: as §1
For test [19], the target named is Neu5Ac(a2-6)Gal(b1-4)GlcNAc. In short, it runs like this:
as §1

Some of the results follow.

B1: Endo180d1-D4 (Homo sapiens), Q9UBG0 (protein)
chain: MGPGRPAPAPWPRHLLRCVLLLGCLHLGRPGAPGDAALPEPNVFLIFSHGLQGCLEAQGGQVRVTPACNTSLPAQRWKWVSRNRLFNLGTMQCLGTGWPGTNTTASLGMYECDREALNLRWHCRTLGDQLSLLLGARTSNISKPGTLERGDQTRSGQWRIYGSEEDLCALPYHEVYTIQGNSHGKPCTIPFKYDNQWFHGCTSTGREDGHLWCATTQDYGKDERWGFCPIKSNDCETFWDKDQLTDSCYQFNFQSTLSWREAWASCEQQGADLLSITEIHEQTYINGLLTGYSSTLWIGLNDLDTSGGWQWSDNSPLKYLNWESDQPDNPSEENCGVIRTESSGGWQNRDCSIALPYVCKKKPNATAEPTPPDRWANVKVECEPSWQPFQGHCYRLQAEKRSWQESKKACLRGGGDLVSIHSMAELEFITKQIKQEVEELWIGLNDLKLQMNFEWSDGSLVSFTHWHPFEPNNFRDSLEDCVTIWGPEGRWNDSPCNQSLPSICKKAGQLSQGAAEEDHGCRKGWTWHSPSCYWLGEDQVTYSEARRLCTDHGSQLVTITNRFEQAFVSSLIYNWEGEYFWTALQDLNSTGSFFWLSGDEVMYTHWNRDQPGYSRGGCVALATGSAMGLWEVKNCTSFRARYICRQSLGTPVTPELPGPDPTPSLTGSCPQGWASDTKLRYCYKVFSSERLQDKKSWVQAQGACQELGAQLLSLASYEEEHFVANMLNKIFGESEPEIHEQHWFWIGLNRRDPRGGQSWRWSDGVGFSYHNFDRSRHDDDDIRGCAVLDLASLQWVAMQCDTQLDWICKIPRGTDVREPDDSPQGRREWLRFQEAEYKFFEHHSTWAQAQRICTWFQAELTSVHSQAELDFLSHNLQKFSRAQEQHWWIGLHTSESDGRFRWTDGSIINFISWAPGKPRPVGKDKKCVYMTASREDWGDQRCLTALPYICKRSNVTKETQPPDLPTTALGGCPSDWIQFLNKCFQVQGQEPQSRVKWSEAQFSCEQQEAQLVTITNPLEQAFITASLPNVTFDLWIGLHASQRDFQWVEQEPLMYANWAPGEPSGPSPAPSGNKPTSCAVVLHSPSAHFTGRWDDRSCTEETHGFICQKGTDPSLSPSPAALPPAPGTELSYLNGTFRLLQKPLRWHDALLLCESHNASLAYVPDPYTQAFLTQAARGLRTPLWIGLAGEEGSRRYSWVSEEPLNYVGWQDGEPQQPGGCTYVDVDGAWRTTSCDTKLQGAVCGVSSGPPPPRRISYHGSCPQGLADSAWIPFREHCYSFHMELLLGHKEARQRCQRAGGAVLSILDEMENVFVWEHLQSYEGQSRGAWLGMNFNPKGGTLVWQDNTAVNYSNWGPPGLGPSMLSHNSCYWIQSNSGLWRPGACTNITMGVVCKLPRAEQSSFSPSALPENPAALVVVLMAVLLLLALLTAALILYRRRQSIERGAFEGARYSRSSSSPTEATEKNILVSDMEMNEQQE
In the case of B1, the “glycan array binding signal (z-score)” value in test [1] was -0.397; in test [2], -0.083; in [3], 0.902; in test [4], -0.471; in [5], 0.016; in test [6] it was -0.132. The “glycan array binding signal (z-score)” value in test [7] was 1.09; in [8] it was 0.26; in [9] it was 0.407; in test [10], -0.024; in [11] it was 1.4; in test [12], 0.74. The “glycan array binding signal (z-score)” value with Neu5Ac(a2-3)GalNAc is -0.207; in [13], -0.55; in test [14], -0.269; in test [15], -0.248; in test [16], -0.661; in test [17], -0.29. The “glycan array binding signal (z-score)” value in the test with Neu5Ac(a2-6)Gal was 0.241; in [18], -2.06; with Neu5Ac(a2-6)Gal(b1-4)Glc it was -0.339; in test [19], -0.526.
